{"source": "PubChem BioAssay (EPA / NIEHS)", "system": "Brachyury (BRA) Protein Expression, Deisenroth Lab, TBXT (gene 6862)", "experiment": "CCTE_Deisenroth_DEVTOX-GLR_Pluri_BRA: CCTE's DevTox GLR-Pluri Assay Evaluation of Brachyury (BRA) Protein Expression, Deisenroth Lab (AID 2284429)", "in_short": "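RUES2-GLR human pluripotent cells differentiated 48 hours with two chemical exposures 24 hours apart, 10-point series 1 nM–200 uM. Fixed, nuclear-stained, imaged; endpoint is percent BRA+ cells minus 0.2% DMSO control.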", "note": "The shares of active, inactive and inconclusive entries below differ from those in the screen. Rule for the calls: active = hit-call score of the fitted dose curve at least 0.9, where 1 is the maximum; inconclusive = response in the unintended direction; inactive = score below 0.9. Potencies beside an inconclusive call are fits to weak or partial responses and may not hold up."}
{"smiles": "Nc1nc2ncc(CNc3ccc(C(=O)N[C@@H](CCC(=O)O)C(=O)O)cc3)nc2c(=O)[nH]1", "values": [{"measurement": "AC50", "value": "inconclusive: 800 nM"}]}
